Each number is a percent effect as filed. The controls that fix the scale are not given in the record; negative values are as filed. This is an unselected part of the compounds tested. Two or more numbers in one place are separate tests of the same structure; such repeats can differ widely.

Mtb cholesterol medium: 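Whole-cell growth test on Mycobacterium tuberculosis, read after 4 days in a medium based on cholesterol and the lipid DPPC; the read-out is not stated. Compounds at 50 µM. Higher reads as more growth inhibition (inferred: compounds with an IC50 in retests scored well above the rest). Size under these conditions: about 69,000 compounds, about 370 of them at 50% or above in at least one test.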
Mtb glucose medium: 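Whole-cell growth test on Mycobacterium tuberculosis, read after 3 days in glucose-containing 7H9 medium; the read-out is not stated. Tested at 50 µM. Direction is inferred from retests: higher values go with more growth inhibition. Size under these conditions: about 69,000 compounds, about 760 of them at 50% or above in at least one test.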

| # | structure | Mtb cholesterol medium | Mtb glucose medium |
|---|---|---|---|
| 1 | `COc1ccccc1CNC(=O)C(C)N1CC(n2cc(C)cn2)C1` (centres undefined) | -5.307% | 3.366% and 5.729% |
| 2 | `c1cncc(-n2cnnc2CCCN2CCOCC2)c1` | -21.12% | -17.9% |
| 3 | `Cc1csc2ncnc(N3CCCC(Cn4cc(C(C)(C)O)nn4)C3)c12` (centres undefined) | 9.543% | -16.1% |
| 4 | `COCc1nc(CNc2cccc(-c3csc(C)n3)c2)cs1` | 4.242% | 26.2% |
| 5 | `CC(SCc1ccc(Br)c2cccnc12)C(N)=O` (centres undefined) | -29.84% | 41.33% |
| 6 | `CC1(C(=O)Nc2ccc(F)c(-n3cccc3)c2)CCOCC1` | 5.826% | 25.34% |
| 7 | `CN(C)C(=O)N1CCN(C(=O)c2ccn3ccnc3c2)CC1` | -0.9071% | -29.42% |
| 8 | `CC(C)Cc1cc(C(=O)NCCc2nnc(N)s2)n(C)n1` | 9.46% | 18.51% and -3.636% |
| 9 | `CCOCCCNc1ncc(-c2cccc(F)c2)c(-c2nccn2C)n1` | 7.158% | 15.87% |
| 10 | `CCN(C)C(=O)NCC1(CN2CCOCC2)CCCCC1` | -9.453% | -16.21% |
| 11 | `N#Cc1c(F)cccc1Nc1cnn(CC(=O)N2CCOCC2)c1` | -31.66% | -16.78% |
| 12 | `CC(SCC(=O)N(C)CC(=O)NC1CC1)c1ccccc1F` (centres undefined) | -9.448% | 23.89% |
| 13 | `CC1N(c2cnn(C)c2)C(=O)COC12CCN(Cc1ccoc1)CC2` (centres undefined) | -23.96% | -26.81% |
| 14 | `Cc1cc(C)c(CNC(=O)C(C)Oc2ccccc2F)c(=O)[nH]1` (centres undefined) | 5.118% | 9.986% |
| 15 | `Cc1ccc2nc(C(=O)N(C)[C@@H]3CC[C@@H](N4CCCC4)[C@@H]3O)cn2c1` | -4.637% and 0.5545% | -15.63% |
| 16 | `[H][C@@]12C[C@@H](c3nnc(C)[nH]3)O[C@]1([H])CN(C(=O)C(C)(C)CC)C2` | -1.846% | -10.47% |
| 17 | `Cc1occc1C(=O)N1CCC2(CCC(=O)N(CC(N)=O)C2)CC1` | -15.88% | -10.64% and -10.4% |
| 18 | `O=C(CO)N1CCc2onc(Cn3cccn3)c2C1` | -5.997% | 0.1083% |
| 19 | `O=C(NC1CCCCC1)c1c(F)cccc1F` | 4.666% | 10.37% |
| 20 | `Cc1nccn1CC1CCCN1S(=O)(=O)Cc1cccc(F)c1` (centres undefined) | -17.58% | -49.02% |
| 21 | `Cc1cc(CN2CCN(C(=O)CCc3cccs3)CC2)on1` | 40.51% | 31.24% and 33.64% |
| 22 | `COC(C)(C)CNC(=O)N(C)Cc1nc(-c2ccccc2)c[nH]1` | -25.75% | -16.95% |
| 23 | `CN1CCCc2cc(CNC(=O)c3ccc(-n4cnnc4)cc3)ccc21` | -0.469% | 21.87% |
| 24 | `CCn1ccnc1CN1CCCN(CC2CC2)C(C(C)C)C1` (centres undefined) | -5.878% | 7.711% |
| 25 | `COCCC1(CO)CCCN(Cc2cc(C(F)(F)F)ccc2F)C1` (centres undefined) | -22.46% and -2.767% | -18.55% and -0.4918% |
| 26 | `CC(C)(C)c1nc(CN(Cc2cccs2)C2CCS(=O)(=O)C2)cs1` (centres undefined) | 5.609% | 5.304% |
| 27 | `Cc1c(C(=O)NC(C)C)nnn1-c1cccc(C(F)(F)F)c1` | 6.616% | -6.508% |
| 28 | `CC1(Cc2ccc3c(c2)OCO3)CCCN(S(=O)(=O)N2CCCC2)C1` (centres undefined) | 10.25% and 13.07% | 13.86% and 16.26% |
| 29 | `COc1ccc(C(NCc2ccc(C#N)cc2)C2CC2)cc1.Cl` (centres undefined) | 5.917% | 22.69% |
| 30 | `O=C(O)C(F)(F)F.[H][C@@]12C[C@@H](C(=O)N(C)C)CN(CCOc3ccc(Cl)cc3)[C@]1([H])CCO2` | 9.323% and -6.908% | 2.64% and -3.419% |
| 31 | `CC(=O)N1CCN([C@@H]2CN(C(=O)c3ccccc3C)C[C@H]2O)CC1` | 5.464% | -0.6961% |
| 32 | `CN(C)c1ncccc1CNC(=O)N1CCN(C)c2ccccc2C1` | -6.642% | 3.953% |
| 33 | `O=C(Cc1cccs1)NCCNc1nccc(C(F)(F)F)n1` | 22.5% and 14.89% | 5.159% |
| 34 | `Cc1cn2c(n1)CCC(NC(=O)CCCn1cncn1)C2` (centres undefined) | -2.215% | -21.55% |
| 35 | `O=C(NCCc1c[nH]c2ccc(F)cc12)C1(n2cnnn2)CCCCC1` | 48.06% | 52.16% |
| 36 | `Cc1cc(NC(=O)C(C)C)n(-c2nc(C)c(C)c(=O)[nH]2)n1` | 47.95% | 83.18% |
| 37 | `Cc1c(Cl)cccc1NC(=O)N1CCC2(CC1)NC(=O)CC2C(=O)O` (centres undefined) | 3.344% and -9.366% | 6.259% |
| 38 | `CNCC(=O)N1CCCC(c2nccnc2Oc2cccc(F)c2)C1.Cl` (centres undefined) | -32.2% | 5.618% |
| 39 | `CCOc1ccc2[nH]c(=O)c(CN3CCC(O)CC3)cc2c1` | 1.254% | -13.49% |
| 40 | `CC(NC(=O)N1CCN(c2nccs2)CC1)c1nncn1C` (centres undefined) | 22.01% | 11.03% |
| 41 | `COc1coc(C(=O)Nc2nc(-c3ccncc3)cs2)cc1=O` | -9.697% | 17.07% |
| 42 | `Cc1nc(CCNC(=O)C2CC(=O)N(C(C)(C)C)C2)sc1Cl` (centres undefined) | -7.47% | 1.418% |
| 43 | `CC(c1cccs1)N(C)Cc1cnc(-c2ccccn2)nc1` (centres undefined) | 12.13% | 47.88% |
| 44 | `N#Cc1ccnc(N2CCN(CC(O)c3ccc(F)cc3)CC2)c1` (centres undefined) | -5.583% | 5.322% |
| 45 | `Cn1c(C2CC2)nc2c1CCN(Cc1nc3ccccc3s1)C2` | -7.224% | 4.226% |
| 46 | `O=C(O)C(F)(F)F.[H][C@@]12CCCO[C@]1([H])[C@H](NC(=O)N(C)C)CN2C1CCOCC1` | 21.11% | -4.913% and 15.78% |

The last 5 entries again:

structure,Mtb cholesterol medium,Mtb glucose medium
Cc1nc(CCNC(=O)C2CC(=O)N(C(C)(C)C)C2)sc1Cl (centres undefined),-7.47%,1.418%
CC(c1cccs1)N(C)Cc1cnc(-c2ccccn2)nc1 (centres undefined),12.13%,47.88%
N#Cc1ccnc(N2CCN(CC(O)c3ccc(F)cc3)CC2)c1 (centres undefined),-5.583%,5.322%
Cn1c(C2CC2)nc2c1CCN(Cc1nc3ccccc3s1)C2,-7.224%,4.226%
O=C(O)C(F)(F)F.[H][C@@]12CCCO[C@]1([H])[C@H](NC(=O)N(C)C)CN2C1CCOCC1,21.11%,-4.913% and 15.78%

Source: ChEMBL document CHEMBL3988442, “University of Dundee, Small-Polar-MMV Screening Library” (2021).